This note sets out measurements from paper PMC5554784.

The chains behind the UniProt entries cited, without tags or fusion partners.
UniProt A5YKK6: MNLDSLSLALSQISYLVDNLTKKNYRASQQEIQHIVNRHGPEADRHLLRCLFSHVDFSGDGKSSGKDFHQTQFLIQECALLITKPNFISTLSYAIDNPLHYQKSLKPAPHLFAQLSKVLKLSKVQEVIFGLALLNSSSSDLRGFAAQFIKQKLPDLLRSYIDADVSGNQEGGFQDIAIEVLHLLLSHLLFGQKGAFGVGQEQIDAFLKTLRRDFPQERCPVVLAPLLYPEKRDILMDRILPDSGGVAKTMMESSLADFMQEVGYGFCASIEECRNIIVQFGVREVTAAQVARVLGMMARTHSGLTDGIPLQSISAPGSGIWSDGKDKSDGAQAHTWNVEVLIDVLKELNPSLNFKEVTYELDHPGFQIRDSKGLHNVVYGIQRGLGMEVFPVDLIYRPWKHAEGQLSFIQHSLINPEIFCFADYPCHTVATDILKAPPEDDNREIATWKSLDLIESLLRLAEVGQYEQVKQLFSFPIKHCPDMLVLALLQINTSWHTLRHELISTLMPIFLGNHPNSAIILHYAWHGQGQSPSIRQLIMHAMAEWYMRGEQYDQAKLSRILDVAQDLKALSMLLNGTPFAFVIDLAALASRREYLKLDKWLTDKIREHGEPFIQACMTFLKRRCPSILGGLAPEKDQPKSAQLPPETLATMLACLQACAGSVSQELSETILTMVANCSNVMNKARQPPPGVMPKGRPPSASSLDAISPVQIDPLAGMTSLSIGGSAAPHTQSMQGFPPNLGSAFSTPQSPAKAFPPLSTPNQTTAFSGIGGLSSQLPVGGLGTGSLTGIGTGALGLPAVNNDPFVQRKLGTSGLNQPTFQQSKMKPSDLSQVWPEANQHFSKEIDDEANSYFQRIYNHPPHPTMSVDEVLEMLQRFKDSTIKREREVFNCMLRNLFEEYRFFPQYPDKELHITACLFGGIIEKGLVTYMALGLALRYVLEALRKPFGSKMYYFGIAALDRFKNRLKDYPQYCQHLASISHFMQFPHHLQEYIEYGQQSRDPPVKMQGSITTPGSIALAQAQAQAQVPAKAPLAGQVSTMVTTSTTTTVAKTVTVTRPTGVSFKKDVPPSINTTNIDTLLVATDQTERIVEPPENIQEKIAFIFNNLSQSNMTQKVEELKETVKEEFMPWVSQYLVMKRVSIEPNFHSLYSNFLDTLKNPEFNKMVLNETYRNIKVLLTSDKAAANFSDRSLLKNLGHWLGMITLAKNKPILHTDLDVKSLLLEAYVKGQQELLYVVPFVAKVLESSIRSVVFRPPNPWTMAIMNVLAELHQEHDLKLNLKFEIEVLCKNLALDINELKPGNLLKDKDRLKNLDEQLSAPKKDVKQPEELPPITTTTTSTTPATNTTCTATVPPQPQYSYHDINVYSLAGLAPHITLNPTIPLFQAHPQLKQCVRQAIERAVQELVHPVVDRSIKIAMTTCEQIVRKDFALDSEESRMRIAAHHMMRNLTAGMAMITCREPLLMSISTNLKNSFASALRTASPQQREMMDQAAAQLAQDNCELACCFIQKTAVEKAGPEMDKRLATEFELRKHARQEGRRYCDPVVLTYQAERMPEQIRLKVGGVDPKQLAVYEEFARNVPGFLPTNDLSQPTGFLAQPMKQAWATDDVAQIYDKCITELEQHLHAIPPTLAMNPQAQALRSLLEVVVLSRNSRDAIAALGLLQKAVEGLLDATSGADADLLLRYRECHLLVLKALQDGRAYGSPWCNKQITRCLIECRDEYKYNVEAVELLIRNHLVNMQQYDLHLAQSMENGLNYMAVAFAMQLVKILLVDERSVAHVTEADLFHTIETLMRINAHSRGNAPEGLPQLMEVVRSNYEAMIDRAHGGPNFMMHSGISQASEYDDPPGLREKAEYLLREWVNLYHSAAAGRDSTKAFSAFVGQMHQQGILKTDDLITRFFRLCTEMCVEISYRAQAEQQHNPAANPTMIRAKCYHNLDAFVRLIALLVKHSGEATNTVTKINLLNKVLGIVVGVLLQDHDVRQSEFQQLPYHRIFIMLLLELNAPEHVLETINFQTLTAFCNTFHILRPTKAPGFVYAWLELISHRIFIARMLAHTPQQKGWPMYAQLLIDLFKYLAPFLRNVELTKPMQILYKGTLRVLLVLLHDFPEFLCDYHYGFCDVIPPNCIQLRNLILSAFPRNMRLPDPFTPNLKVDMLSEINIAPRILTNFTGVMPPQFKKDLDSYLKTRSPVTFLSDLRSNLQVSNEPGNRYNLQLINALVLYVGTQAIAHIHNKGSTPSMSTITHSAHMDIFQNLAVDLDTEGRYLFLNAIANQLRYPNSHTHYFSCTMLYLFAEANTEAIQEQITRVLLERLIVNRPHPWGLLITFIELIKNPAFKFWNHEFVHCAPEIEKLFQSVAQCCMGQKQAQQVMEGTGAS
UniProt Q96F86: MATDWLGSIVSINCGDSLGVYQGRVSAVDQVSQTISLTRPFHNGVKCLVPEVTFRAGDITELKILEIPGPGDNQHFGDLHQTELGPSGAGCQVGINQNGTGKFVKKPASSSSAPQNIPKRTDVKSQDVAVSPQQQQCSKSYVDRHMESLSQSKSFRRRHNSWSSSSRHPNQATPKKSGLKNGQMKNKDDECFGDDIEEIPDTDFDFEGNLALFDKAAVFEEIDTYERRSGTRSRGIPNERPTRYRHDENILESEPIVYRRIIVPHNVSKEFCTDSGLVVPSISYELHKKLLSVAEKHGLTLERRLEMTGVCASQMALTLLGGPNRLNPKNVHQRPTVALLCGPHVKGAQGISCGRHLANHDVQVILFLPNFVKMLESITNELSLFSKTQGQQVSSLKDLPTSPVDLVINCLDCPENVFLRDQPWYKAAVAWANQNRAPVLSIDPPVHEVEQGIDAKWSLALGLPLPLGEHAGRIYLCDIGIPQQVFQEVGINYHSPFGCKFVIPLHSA
UniProt Q8IZH2: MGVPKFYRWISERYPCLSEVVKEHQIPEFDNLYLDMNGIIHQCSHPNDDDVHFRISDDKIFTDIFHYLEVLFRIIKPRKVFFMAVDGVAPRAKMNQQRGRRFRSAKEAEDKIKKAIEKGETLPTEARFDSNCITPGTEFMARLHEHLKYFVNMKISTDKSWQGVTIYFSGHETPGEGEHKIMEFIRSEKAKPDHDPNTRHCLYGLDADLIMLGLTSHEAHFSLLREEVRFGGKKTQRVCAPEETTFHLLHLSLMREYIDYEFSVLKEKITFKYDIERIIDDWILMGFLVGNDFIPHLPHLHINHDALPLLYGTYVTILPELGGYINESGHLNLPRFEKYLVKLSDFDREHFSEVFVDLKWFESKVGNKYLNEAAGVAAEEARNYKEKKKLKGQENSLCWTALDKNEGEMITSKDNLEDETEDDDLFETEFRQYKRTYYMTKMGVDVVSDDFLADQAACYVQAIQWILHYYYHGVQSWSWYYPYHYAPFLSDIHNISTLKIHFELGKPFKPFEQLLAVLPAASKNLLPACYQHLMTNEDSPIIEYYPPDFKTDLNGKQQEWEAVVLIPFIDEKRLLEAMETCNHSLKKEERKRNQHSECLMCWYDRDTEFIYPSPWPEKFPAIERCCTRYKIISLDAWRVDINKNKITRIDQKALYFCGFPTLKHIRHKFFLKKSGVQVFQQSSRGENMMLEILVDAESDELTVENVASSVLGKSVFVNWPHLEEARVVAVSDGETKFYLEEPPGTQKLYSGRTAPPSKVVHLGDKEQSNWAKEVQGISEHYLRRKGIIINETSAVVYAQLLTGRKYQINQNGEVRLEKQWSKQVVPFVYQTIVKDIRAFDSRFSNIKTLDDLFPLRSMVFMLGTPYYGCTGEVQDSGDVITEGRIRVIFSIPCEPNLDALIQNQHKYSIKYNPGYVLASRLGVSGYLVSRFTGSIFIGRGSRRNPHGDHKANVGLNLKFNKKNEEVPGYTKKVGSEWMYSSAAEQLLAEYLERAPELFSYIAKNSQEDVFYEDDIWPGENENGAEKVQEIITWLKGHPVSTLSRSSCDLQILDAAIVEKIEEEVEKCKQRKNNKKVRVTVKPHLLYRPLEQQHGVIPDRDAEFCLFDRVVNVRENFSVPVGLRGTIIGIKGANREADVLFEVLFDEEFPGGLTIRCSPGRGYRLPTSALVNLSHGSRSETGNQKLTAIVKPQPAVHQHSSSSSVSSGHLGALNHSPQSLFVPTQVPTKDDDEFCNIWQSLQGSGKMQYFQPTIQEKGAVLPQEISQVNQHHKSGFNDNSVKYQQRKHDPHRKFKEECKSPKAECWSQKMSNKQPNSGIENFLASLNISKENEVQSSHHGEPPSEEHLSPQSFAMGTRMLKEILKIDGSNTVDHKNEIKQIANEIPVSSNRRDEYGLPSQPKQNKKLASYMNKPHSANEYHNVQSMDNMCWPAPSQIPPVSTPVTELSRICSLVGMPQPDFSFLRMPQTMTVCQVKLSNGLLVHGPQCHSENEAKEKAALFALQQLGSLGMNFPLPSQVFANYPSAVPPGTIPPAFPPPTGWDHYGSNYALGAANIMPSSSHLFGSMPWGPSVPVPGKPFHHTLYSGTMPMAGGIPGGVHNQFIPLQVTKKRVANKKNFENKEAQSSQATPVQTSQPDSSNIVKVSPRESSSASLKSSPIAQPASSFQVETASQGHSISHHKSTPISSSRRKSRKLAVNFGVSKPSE

One experiment concerns the target T1, YFP-Pat1b (human) (UniProt Q86TB9).
T1 sequence: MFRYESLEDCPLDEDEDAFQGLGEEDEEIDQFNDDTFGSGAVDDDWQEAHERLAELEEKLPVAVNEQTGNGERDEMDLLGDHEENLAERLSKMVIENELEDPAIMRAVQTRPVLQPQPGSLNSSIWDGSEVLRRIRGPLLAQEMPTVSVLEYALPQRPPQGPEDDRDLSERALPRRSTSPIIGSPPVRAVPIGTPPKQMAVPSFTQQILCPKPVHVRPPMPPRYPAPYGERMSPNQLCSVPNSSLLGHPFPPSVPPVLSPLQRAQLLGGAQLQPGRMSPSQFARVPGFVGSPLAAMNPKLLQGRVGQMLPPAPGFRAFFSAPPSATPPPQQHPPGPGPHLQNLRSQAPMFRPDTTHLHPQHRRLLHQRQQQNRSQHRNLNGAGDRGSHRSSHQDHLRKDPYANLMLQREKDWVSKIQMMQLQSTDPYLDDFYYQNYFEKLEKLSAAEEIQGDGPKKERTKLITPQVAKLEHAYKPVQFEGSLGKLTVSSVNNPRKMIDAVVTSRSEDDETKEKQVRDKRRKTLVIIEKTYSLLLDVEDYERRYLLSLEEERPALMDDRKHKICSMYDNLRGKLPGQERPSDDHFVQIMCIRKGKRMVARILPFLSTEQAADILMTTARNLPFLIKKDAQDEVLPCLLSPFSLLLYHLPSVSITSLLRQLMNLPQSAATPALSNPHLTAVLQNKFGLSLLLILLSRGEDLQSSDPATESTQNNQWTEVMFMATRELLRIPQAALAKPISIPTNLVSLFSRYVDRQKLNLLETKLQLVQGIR
The experiment is described as follows: affinity purification with mass spectrometry; GFP-Trap pull-down of YFP-Pat1b from HEK293 cells, mass spectrometry.

Experiment [1] has as its target T2, FLAG-Pat1b (full-length) (human) (UniProt Q86TB9).
T2 sequence: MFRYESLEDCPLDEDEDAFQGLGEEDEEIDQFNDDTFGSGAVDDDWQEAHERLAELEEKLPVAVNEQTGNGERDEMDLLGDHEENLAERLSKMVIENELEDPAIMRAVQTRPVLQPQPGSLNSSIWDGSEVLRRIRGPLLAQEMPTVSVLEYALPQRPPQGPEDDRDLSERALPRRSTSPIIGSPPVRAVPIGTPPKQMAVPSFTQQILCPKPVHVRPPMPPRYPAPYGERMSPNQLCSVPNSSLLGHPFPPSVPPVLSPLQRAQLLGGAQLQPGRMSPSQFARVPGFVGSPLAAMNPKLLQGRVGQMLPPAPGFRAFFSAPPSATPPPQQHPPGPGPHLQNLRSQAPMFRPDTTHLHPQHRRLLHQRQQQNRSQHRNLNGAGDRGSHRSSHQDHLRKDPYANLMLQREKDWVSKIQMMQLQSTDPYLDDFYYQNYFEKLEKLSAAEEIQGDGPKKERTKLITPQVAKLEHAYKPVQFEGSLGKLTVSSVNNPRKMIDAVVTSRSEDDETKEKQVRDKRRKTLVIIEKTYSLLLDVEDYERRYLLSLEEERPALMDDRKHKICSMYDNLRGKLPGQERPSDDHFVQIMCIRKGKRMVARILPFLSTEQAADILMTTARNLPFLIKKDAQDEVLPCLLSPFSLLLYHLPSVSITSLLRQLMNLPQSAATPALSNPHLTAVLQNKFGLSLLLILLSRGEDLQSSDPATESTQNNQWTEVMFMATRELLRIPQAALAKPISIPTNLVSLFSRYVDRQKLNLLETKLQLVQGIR
The experiment is described as follows: affinity purification with mass spectrometry; FLAG-Pat1b or FLAG-GFP transiently expressed in HEK293 cells; total cell lysates on anti-FLAG M2 beads, eluted with FLAG peptide, SDS-PAGE, GELC/MS/MS.

Results are given in words; binding and its absence hold for the method and conditions named. Binding seen in cells or lysates may run through a third protein. A yes stands for co-enrichment or nearness to the bait. Other partners may have been found. Tags and fused reporters may be left off the sequences shown.

Regarding CNOT1 (from UniProt A5YKK6 1-2376), the binding entry (with YFP-Pat1b (human); in experiment [1]) was “binds” each time.

As to Dcp2 (from UniProt Q8IU60 1-420), in the experiment with YFP-Pat1b (human), the binding result is “binds”.

For Edc3 (from UniProt Q96F86 1-508), the binding entry in the experiment with YFP-Pat1b (human) is reported as “binds”.

For the molecule Xrn1 (from UniProt Q8IZH2 1-1706), the binding entry (with YFP-Pat1b (human); in experiment [1]) was “binds” throughout.

As for “snRNP200/Brr2 (from UniProt O75643 1-2136)”, the binding entry (in the experiment with YFP-Pat1b (human); in experiment [1]) was “binds” throughout.

B1: Prp4 (protein, UniProt O43172 1-522)
chain: MASSRASSTQATKTKAPDDLVAPVVKKPHIYYGSLEEKERERLAKGESGILGKDGLKAGIEAGNINITSGEVFEIEEHISERQAEVLAEFERRKRARQINVSTDDSEVKACLRALGEPITLFGEGPAERRERLRNILSVVGTDALKKTKKDDEKSKKSKEEYQQTWYHEGPNSLKVARLWIANYSLPRAMKRLEEARLHKEIPETTRTSQMQELHKSLRSLNNFCSQIGDDRPISYCHFSPNSKMLATACWSGLCKLWSVPDCNLLHTLRGHNTNVGAIVFHPKSTVSLDPKDVNLASCAADGSVKLWSLDSDEPVADIEGHTVRVARVMWHPSGRFLGTTCYDRSWRLWDLEAQEEILHQEGHSMGVYDIAFHQDGSLAGTGGLDAFGRVWDLRTGRCIMFLEGHLKEIYGINFSPNGYHIATGSGDNTCKVWDLRQRRCVYTIPAHQNLVTGVKFEPIHGNFLLTGAYDNTAKIWTHPGWSPLKTLAGHEGKVMGLDISSDGQLIATCSYDRTFKLWMAE
For B1, the binding entry (with YFP-Pat1b (human); in experiment [1]) was “binds” throughout.

B2: Prp3 (protein, UniProt O43395 1-683)
chain: MALSKRELDELKPWIEKTVKRVLGFSEPTVVTAALNCVGKGMDKKKAADHLKPFLDDSTLRFVDKLFEAVEEGRSSRHSKSSSDRSRKRELKEVFGDDSEISKESSGVKKRRIPRFEEVEEEPEVIPGPPSESPGMLTKLQIKQMMEAATRQIEERKKQLSFISPPTPQPKTPSSSQPERLPIGNTIQPSQAATFMNDAIEKARKAAELQARIQAQLALKPGLIGNANMVGLANLHAMGIAPPKVELKDQTKPTPLILDEQGRTVDATGKEIELTHRMPTLKANIRAVKREQFKQQLKEKPSEDMESNTFFDPRVSIAPSQRQRRTFKFHDKGKFEKIAQRLRTKAQLEKLQAEISQAARKTGIHTSTRLALIAPKKELKEGDIPEIEWWDSYIIPNGFDLTEENPKREDYFGITNLVEHPAQLNPPVDNDTPVTLGVYLTKKEQKKLRRQTRREAQKELQEKVRLGLMPPPEPKVRISNLMRVLGTEAVQDPTKVEAHVRAQMAKRQKAHEEANAARKLTAEQRKVKKIKKLKEDISQGVHISVYRVRNLSNPAKKFKIEANAGQLYLTGVVVLHKDVNVVVVEGGPKAQKKFKRLMLHRIKWDEQTSNTKGDDDEESDEEAVKKTNKCVLVWEGTAKDRSFGEMKFKQCPTENMAREHFKKHGAEHYWDLALSESVLESTD
Take B2: the binding entry (in the experiment with YFP-Pat1b (human); in experiment [1]) was “binds” in each case.

B3: NHP2L1 (protein, UniProt P55769 1-128)
chain: MTEADVNPKAYPLADAHLTKKLLDLVQQSCNYKQLRKGANEATKTLNRGISEFIVMAADAEPLEIILHLPLLCEDKNVPYVFVRSKQALGRACGVSRPVIACSVTIKEGSQLKQQIQSIQQSIERLLV
B3: the binding entry with YFP-Pat1b (human) is “binds”.

B4: Edc4 (protein, UniProt Q6P2E9 1-1401)
chain: MASCASIDIEDATQHLRDILKLDRPAGGPSAESPRPSSAYNGDLNGLLVPDPLCSGDSTSANKTGLRTMPPINLQEKQVICLSGDDSSTCIGILAKEVEIVASSDSSISSKARGSNKVKIQPVAKYDWEQKYYYGNLIAVSNSFLAYAIRAANNGSAMVRVISVSTSERTLLKGFTGSVADLAFAHLNSPQLACLDEAGNLFVWRLALVNGKIQEEILVHIRQPEGTPLNHFRRIIWCPFIPEESEDCCEESSPTVALLHEDRAEVWDLDMLRSSHSTWPVDVSQIKQGFIVVKGHSTCLSEGALSPDGTVLATASHDGYVKFWQIYIEGQDEPRCLHEWKPHDGRPLSCLLFCDNHKKQDPDVPFWRFLITGADQNRELKMWCTVSWTCLQTIRFSPDIFSSVSVPPSLKVCLDLSAEYLILSDVQRKVLYVMELLQNQEEGHACFSSISEFLLTHPVLSFGIQVVSRCRLRHTEVLPAEEENDSLGADGTHGAGAMESAAGVLIKLFCVHTKALQDVQIRFQPQLNPDVVAPLPTHTAHEDFTFGESRPELGSEGLGSAAHGSQPDLRRIVELPAPADFLSLSSETKPKLMTPDAFMTPSASLQQITASPSSSSSGSSSSSSSSSSSLTAVSAMSSTSAVDPSLTRPPEELTLSPKLQLDGSLTMSSSGSLQASPRGLLPGLLPAPADKLTPKGPGQVPTATSALSLELQEVEPLGLPQASPSRTRSPDVISSASTALSQDIPEIASEALSRGFGSSAPEGLEPDSMASAASALHLLSPRPRPGPELGPQLGLDGGPGDGDRHNTPSLLEAALTQEASTPDSQVWPTAPDITRETCSTLAESPRNGLQEKHKSLAFHRPPYHLLQQRDSQDASAEQSDHDDEVASLASASGGFGTKVPAPRLPAKDWKTKGSPRTSPKLKRKSKKDDGDAAMGSRLTEHQVAEPPEDWPALIWQQQRELAELRHSQEELLQRLCTQLEGLQSTVTGHVERALETRHEQEQRRLERALAEGQQRGGQLQEQLTQQLSQALSSAVAGRLERSIRDEIKKTVPPCVSRSLEPMAGQLSNSVATKLTAVEGSMKENISKLLKSKNLTDAIARAAADTLQGPMQAAYREAFQSVVLPAFEKSCQAMFQQINDSFRLGTQEYLQQLESHMKSRKAREQEAREPVLAQLRGLVSTLQSATEQMAATVAGSVRAEVQHQLHVAVGSLQESILAQVQRIVKGEVSVALKEQQAAVTSSIMQAMRSAAGTPVPSAHLDCQAQQAHILQLLQQGHLNQAFQQALTAADLNLVLYVCETVDPAQVFGQPPCPLSQPVLLSLIQQLASDLGTRTDLKLSYLEEAVMHLDHSDPITRDHMGSVMAQVRQKLFQFLQAEPHNSLGKAARRLSLMLHGLVTPSLP
As for B4, the binding result (with YFP-Pat1b (human); in experiment [1]) was “binds” each time.
